Results are given in words; binding and its absence hold for the method and conditions named. Binding seen in cells or lysates may run through a third protein.
Biological target: GFP-tagged FLAGHA-STAT3 (UniProt P40763)
Experiment: co-IP; GFP beads on lysates of cells overexpressing the constructs ('GFP-pulldown assay'), western blot; HEK293T stated for Figure 5a and 5b, cells not stated for 5e, 5f, 5h

Amino acid sequences for entries named in this document (tags omitted). A change or cut given only in a name is not applied to a line headed by its entry.
UniProt P40763: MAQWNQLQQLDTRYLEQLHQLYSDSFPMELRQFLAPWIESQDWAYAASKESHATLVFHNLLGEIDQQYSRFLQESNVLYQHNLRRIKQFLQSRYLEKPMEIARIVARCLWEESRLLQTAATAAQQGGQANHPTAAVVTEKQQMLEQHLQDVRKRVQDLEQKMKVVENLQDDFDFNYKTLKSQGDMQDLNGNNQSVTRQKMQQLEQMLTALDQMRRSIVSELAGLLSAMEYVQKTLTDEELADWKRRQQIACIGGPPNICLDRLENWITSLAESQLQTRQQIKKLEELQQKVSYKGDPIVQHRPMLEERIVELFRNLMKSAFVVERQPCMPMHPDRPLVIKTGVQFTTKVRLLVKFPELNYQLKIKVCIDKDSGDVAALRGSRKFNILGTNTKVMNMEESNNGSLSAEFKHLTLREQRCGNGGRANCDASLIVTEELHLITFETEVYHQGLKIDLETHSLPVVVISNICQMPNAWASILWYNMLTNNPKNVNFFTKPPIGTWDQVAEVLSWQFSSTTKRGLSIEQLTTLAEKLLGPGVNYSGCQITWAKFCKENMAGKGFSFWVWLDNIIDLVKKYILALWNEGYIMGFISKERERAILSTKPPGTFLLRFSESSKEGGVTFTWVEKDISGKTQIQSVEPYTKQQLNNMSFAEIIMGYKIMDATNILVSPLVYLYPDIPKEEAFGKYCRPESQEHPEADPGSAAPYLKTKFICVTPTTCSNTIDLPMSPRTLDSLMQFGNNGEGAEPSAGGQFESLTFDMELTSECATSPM
UniProt Q01196: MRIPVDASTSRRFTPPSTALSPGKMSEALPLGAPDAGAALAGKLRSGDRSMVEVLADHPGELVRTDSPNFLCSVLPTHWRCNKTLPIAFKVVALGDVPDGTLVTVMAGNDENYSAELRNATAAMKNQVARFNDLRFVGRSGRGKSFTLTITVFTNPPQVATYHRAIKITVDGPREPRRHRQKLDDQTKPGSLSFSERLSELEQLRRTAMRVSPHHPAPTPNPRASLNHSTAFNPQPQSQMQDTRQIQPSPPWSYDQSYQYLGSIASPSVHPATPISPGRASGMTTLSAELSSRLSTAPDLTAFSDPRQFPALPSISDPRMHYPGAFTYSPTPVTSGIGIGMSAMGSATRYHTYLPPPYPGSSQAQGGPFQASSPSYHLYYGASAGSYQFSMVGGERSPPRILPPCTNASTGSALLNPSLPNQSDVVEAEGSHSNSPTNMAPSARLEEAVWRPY

## RUNX1 with deleted Runt domain (RUNX1^ΔRD) (from UniProt Q01196)
  binding: no binding
